Source: patent US20250051327A1, “MALT-1 MODULATORS” (EXSCIENTIA AI LIMITED, priority 2020, published 2025)
The structures given here were assigned with low confidence; some may be wrong.

Protein sequences, listed by entry. Tags and fused reporters are not part of them. Residues count along the entry.
UniProt Q9UDY8, 340-824 limits assumed: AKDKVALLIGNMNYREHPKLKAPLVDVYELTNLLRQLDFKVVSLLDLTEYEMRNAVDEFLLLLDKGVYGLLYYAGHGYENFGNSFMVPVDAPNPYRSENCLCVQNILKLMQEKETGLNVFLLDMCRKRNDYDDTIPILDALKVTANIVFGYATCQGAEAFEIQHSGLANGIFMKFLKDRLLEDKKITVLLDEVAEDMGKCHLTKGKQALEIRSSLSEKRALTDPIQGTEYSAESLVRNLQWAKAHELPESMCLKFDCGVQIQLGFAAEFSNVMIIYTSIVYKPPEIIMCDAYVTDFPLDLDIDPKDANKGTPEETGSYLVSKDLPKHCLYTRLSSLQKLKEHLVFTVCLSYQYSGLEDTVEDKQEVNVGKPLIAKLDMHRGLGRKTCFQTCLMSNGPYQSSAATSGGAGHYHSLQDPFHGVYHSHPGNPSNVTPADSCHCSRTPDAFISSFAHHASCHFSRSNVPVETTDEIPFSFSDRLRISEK

What was measured:
[1] = system: IL-2 secretion by human effector memory T cells (TEM); assay: Effector memory T cells IL-2 release assay; settings: read-out: CD4TC IL2 IC50; human CD4+ effector memory T cells, CD3/CD28 bead stimulation, 24 h
Procedure: Effector Memory T Cells IL-2 Release Assay
Test compound-mediated inhibition of NFκB signalling in T cells was assessed by quantification of the IL-2 secretion by human effector memory T cells (TEM) upon treatment and stimulation. Human TEM cells were isolated from buffy coats of healthy donors obtained from the French blood bank. First, peripheral blood mononuclear cells (PBMC) were purified from buffy coats diluted 1:1 with DPBS (Gibco, cat #14190-094) by Pancoll (PAN BIOTECH, cat #P04-60500) density gradient centrifugation at 400×g for 20 minutes. TEM cells were further enriched by negative immuno-magnetic cell sorting using a human CD4+ Effector Memory T Cell Isolation Kit (Miltenyi, cat #130-094-125) according to the manufacturer's instructions. Aliquots of 3×10E6 purified TEM cells were kept frozen in Cryo-SFM medium (PromoCell, cat #C-29912) in gas phase nitrogen until used. Cell purity was verified by flow cytometry analysis of 200 000 PFA-fixed cells previously labelled with monoclonal antibodies anti-CD4-PerCP-Cy5.5 (BD Pharmigen, cat #332772), anti-CD8-V500 (BD Biosciences, cat #561617), anti-CD14-Pacific Blue (Biolegend, cat #325616), anti-CD45 RA-FITC (Biolegend, cat #304106) and anti-CCR7-APC (in CD4+ Effector Memory T Cell Isolation Kit, Miltenyi, cat #130-094-125).
TEM cells were resuspended in complete RPMI medium composed of: RPMI 1640 (Gibco, cat #31870-025), 10% heat inactivated fetal bovine serum (Sigma, cat #F7524), 2 mM GlutaMAX (Gibco, cat #35050-038), 1 mM sodium pyruvate 100× (Gibco, cat #11360-039), 1% MEM non-essential amino acids solution (Gibco, cat #11140-035) and 100 U/mL penicillin, 100 μg/mL streptomycin (Sigma-Aldrich, cat #11074440001). 5,000 cells per well were plated onto flat clear bottom 384 well plates (Corning, cat #3770). 5,000 Dynabeads Human T-Activator CD3/CD28 (Gibco, cat #11132D) were added to each well for cell stimulation. Finally, 10 doses of test compound, originally prepared in DMSO by serial semi-log step dilution, were also added to cells in triplicate wells. Final DMSO concentration in wells was 0.1% in a total volume of 100 μL complete medium. Plates were incubated for 24 h at 37° C. in 5% CO2 atmosphere. After incubation, cell suspensions were centrifuged at 400×g and culture supernatants were recovered and stored at −80° C. Cell viability was assessed by flow cytometry after staining the cells with Fixable Viability Dye eFluor 780 (Invitrogen, cat #65-0865-14). IL-2 levels were determined in cell supernatants using an HTRF human IL-2 detection kit (Cisbio, cat #62HIL02PEH). […] Viability data were analysed similarly to exclude cytotoxicity as a cause of IL-2 decrease (see Table 1).

[2] = target: Recombinant human MALT-1 (amino acids 340-824) (Homo sapiens (Human), UniProt Q9UDY8); assay: MALT-1 inhibition assay (fluorogenic substrate Ac-LRSR-Rh110-DP); settings: read-out: MALT-1 IC50; recombinant human MALT-1, substrate Ac-LRSR-Rh110-DP

| Structure (SMILES) | IC50 [1] | IC50 [2] |
| --- | --- | --- |
| CN(C(=O)C1CCS(=N)(=O)CC1)C(c1ccc(N2CCC3(CC3)c3c2cnc2cc(Cl)nn32)cc1)C(F)(F)F (centres unmarked) | 54 nM |  |
| CC(=O)N1CCC(C(=O)N(C)[C@@H](c2ccc(N3CC[C@H](C)c4c3cnc3cc(Cl)nn43)cc2)C(F)(F)F)CC1 (relative stereo) [CPD0074566, 1-Acetyl-N-[(1S)-1-[4-[(13rel-R)-4-chloro-13-methyl-2,3,7,10-tetrazatricyclo[7.4.0.0^2,6]trideca-1(9),3,5,7-tetraen-10-yl]phenyl]-2,2,2-trifluoro-ethyl]-N-methyl-piperidine-4-carboxamide] |  | 33 nM |
| COc1ccc2ncc(Nc3ccc([C@H](N(C)C(=O)C4CCS(=O)(=O)CC4)C(F)(F)F)cn3)c([C@H](C)OC)c2n1 (single isomer, unassigned) | 571 nM |  |
| COC(C)c1c(Nc2ccc(C(N(C)C(=O)C3CCS(=O)(=O)CC3)C(F)(F)F)cc2)cnc2ccc(Cl)nc12 (single isomer, unassigned) [CPD0019497] | 23 nM |  |
| COC(C)c1c(Nc2ccc(C(N(C)C(=O)C3CCS(=O)(=O)CC3)C(F)(F)F)cc2)cnc2ccc(Cl)nc12 (single isomer, unassigned) [CPD0019498] | 122 nM |  |
